Test results published in patent publication US11149062B2, “HDAC inhibitors and methods of treatment using the same” (UWM Research Foundation, Inc., priority 2015, dated 2021).
Some results were stated once for a whole list of compounds, not compound by compound. Some compounds share one range, which may span the group rather than tell each member.

Each compound was assayed on colon (HCT-116), cervical (HeLa), and renal (RFX393) tumor cell lines (assay: MTT antiproliferative assay, all three tumor cell lines). Conditions: Table 3 cell lines.
Assay type: cell-based
Procedure: Briefly, the tumor cells (1×10^4 cells/well) were seeded in 96-well microtiter plates and incubated for 24 h at 37° C. Following incubation, the media was replaced with fresh media containing the above compounds at concentrations ranging from 1 μM to 1 pM diluted in DMSO and incubated for an additional 48 h. Drugs were run in duplicate or triplicate and control cells received fresh media with DMSO concentration equivalent to the treatment groups. […] After aspirating the culture medium, 200 μL of DMSO was added to dissolve the precipitate and the resulting solution was measured for absorbance at 570 nm with a reference wavelength of 690 nm using a microplate reader (Infinite M200 Pro TECAN).

SMILES | increase of GI50 relative to TDP-A
CCC(C)[C@H]1NC(=O)[C@H]2CSSCC/C=C/[C@H](CC(=O)N[C@H](CCSC)C(=O)N2)OC(=O)C[C@@H]1OC(=O)c1ccccc1 (stereo partly drawn) [TDC1] | 100 to 1000 fold
CCC(C)[C@H]1NC(=O)[C@H]2CSSCC/C=C/[C@H](CC(=O)N[C@H](CCSC)C(=O)N2)OC(=O)C[C@@H]1OCCC=O (stereo partly drawn) [TDC2] | 100 to 1000 fold
CCC(C)[C@H]1NC(=O)[C@H]2CSSCC/C=C/[C@H](CC(=O)N[C@H](CCSC)C(=O)N2)OC(=O)C[C@@H]1OC(C)=O (stereo partly drawn) [TDC3] | 100 to 1000 fold
